“And” between values parts separate entries of the source, which are not always exact repeats. Equal entries are not always repeated. In all, about 220,000 compounds went through this assay and about 910 (0.41%) were called active. Inconclusive results, whose numbers are uncertain, are shown with a selection of clear calls.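 The calls were made as follows: active = primary inhibition above the hit cutoff, then over 50% inhibition at one or more dose response concentrations (cut at about 23% in these data, passing the limit was not always enough); inconclusive = conflicting primary data, or primary hits not chosen for dose response; inactive = low primary inhibition, or under 50% at every dose.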 A structure can be active in one record and inactive in another.
Target: Aminopeptidase N (Plasmodium falciparum (isolate 3D7)) (UniProt O96935)
Experiment: P. falciparum M1AAP inhibitors, biochemical, fluorogenic H-Leu-NHMec substrate, 1536-well (AID 1445);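 also: plate controls were DMSO full reaction for no effect and no enzyme background for full effect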
Details: recombinant M1AAP, H-Leu-NHMec fluorogenic kinetic assay; at 30 µM; hits give high values

Amino acid sequences for entries named in this document (tags omitted). A change or cut given only in a name is not applied to a line headed by its entry.
UniProt O96935: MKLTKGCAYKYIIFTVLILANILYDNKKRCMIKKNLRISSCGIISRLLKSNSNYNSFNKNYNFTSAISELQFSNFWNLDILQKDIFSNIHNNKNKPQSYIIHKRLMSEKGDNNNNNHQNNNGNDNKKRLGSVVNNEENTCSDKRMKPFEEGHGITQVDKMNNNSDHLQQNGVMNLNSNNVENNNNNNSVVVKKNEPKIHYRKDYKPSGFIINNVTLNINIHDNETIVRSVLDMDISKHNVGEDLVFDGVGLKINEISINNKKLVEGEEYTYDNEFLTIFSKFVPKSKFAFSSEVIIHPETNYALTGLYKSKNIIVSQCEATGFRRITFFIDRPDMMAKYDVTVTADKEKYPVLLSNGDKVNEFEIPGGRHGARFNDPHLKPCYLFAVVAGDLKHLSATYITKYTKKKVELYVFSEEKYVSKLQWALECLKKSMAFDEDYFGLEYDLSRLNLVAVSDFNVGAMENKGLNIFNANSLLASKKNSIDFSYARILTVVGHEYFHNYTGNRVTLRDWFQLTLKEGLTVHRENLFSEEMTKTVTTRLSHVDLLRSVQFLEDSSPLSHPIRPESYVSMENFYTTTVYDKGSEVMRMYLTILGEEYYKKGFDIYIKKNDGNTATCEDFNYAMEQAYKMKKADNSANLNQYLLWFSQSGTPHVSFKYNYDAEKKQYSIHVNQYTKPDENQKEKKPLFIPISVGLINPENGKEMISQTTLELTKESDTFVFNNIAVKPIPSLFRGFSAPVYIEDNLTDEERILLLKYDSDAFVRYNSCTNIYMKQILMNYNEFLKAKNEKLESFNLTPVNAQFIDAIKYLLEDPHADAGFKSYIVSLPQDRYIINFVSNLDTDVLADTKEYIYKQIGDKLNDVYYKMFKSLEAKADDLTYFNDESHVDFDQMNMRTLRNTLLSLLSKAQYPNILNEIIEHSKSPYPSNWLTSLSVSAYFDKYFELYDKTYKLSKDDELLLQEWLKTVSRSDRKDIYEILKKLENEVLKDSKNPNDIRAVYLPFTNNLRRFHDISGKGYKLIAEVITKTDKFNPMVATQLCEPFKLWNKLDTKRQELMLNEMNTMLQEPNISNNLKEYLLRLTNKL

Row | SMILES | inhibition
1 | CC(C)OC(=O)c1c(N)n(Cc2ccco2)c2nc3ccccc3nc12 | active: 26.7%
2 | Cn1c[n+](C)cc1C(O)c1ccccc1 (centres undefined) | inconclusive: 32.1%
3 | COCCN1Cc2cc(=O)n3c([nH]c4ccccc43)c2C1=N | inconclusive: 26.5%
4 | COc1ccc(Cn2c(O)c(/C=N/NC(=O)c3ccccc3O)c(=O)[nH]c2=O)cc1 | inconclusive: 25%
5 | O=C1NC(=O)N(c2ccccc2F)C(=O)/C1=C/c1ccc(Sc2nc3ccccc3[nH]2)o1 | inconclusive: 31.2%
6 | CCOC(=O)c1c(NS(=O)(=O)c2ccccc2)n(CCCOC)c2nc3ccccc3nc12 | inconclusive: 26.1%
7 | CC[N+](C)(CC)CCCOC(=O)C(O)(c1ccccc1)C1CCCCC1 (centres undefined) | inconclusive: 27.9%
8 | CC(=O)c1cccc(NC2=NCC(C)S2)c1 (centres undefined) | active: 24.8%
9 | CC1(C)OC(c2ccccc2)=C/C(=C/C=C2C(=O)NC(=S)NC2=O)O1 | inconclusive: 27.6%
10 | O=C(N/N=C/c1c(O)n(Cc2ccccc2)c(=O)[nH]c1=O)c1ccncc1 | inconclusive: 26.3%
11 | Nc1c(C(=O)NCCN2CCOCC2)c2nc3ccccc3nc2n1Cc1ccccc1 | inconclusive: 25.6%
12 | COCCCNC(=O)c1c(NC(=O)c2ccco2)n(Cc2ccccc2)c2nc3ccccc3nc12 | inconclusive: 23.8%
13 | COCCOC(=O)c1c(N)n(Cc2ccc(OC)cc2)c2nc3ccccc3nc12 | inconclusive: 24.5%
14 | O=c1[nH]c(=S)n(C2CC2)c(O)c1/C=N/Nc1cccc2ccccc12 | inconclusive: 28.1%
15 | O=C(O)c1cccc2c1NC(C(=O)O)C1CC(Sc3ccccc3[N+](=O)[O-])C(Cl)C21 (centres undefined) | inconclusive: 34.7%
16 | Oc1cccc2nc3ccccc3nc12 | inconclusive: 26.2%
17 | CN1C(=O)C(=Cc2ccccc2OCc2ccccc2Cl)C(=O)N(C)C1=O | inconclusive: 25%
18 | CCCCOCCCn1c(N)c(C(=O)OCCOC)c2nc3ccccc3nc21 | inactive: 19.1%
19 | CC(C)CCn1c(=O)c(C(=O)Nc2ccccc2S(N)(=O)=O)c(O)c2ccccc21 | inconclusive: 11.9%
20 | CCCCN1C(=O)C(C2c3ccccc3C(=O)N2Cc2ccccc2)C(=O)NC1=S (centres undefined) | inconclusive: 27.8%
21 | CCOC(=O)c1c(-c2ccc(OC)cc2)oc2ccc(OC(=O)N(C)C)cc12 | inconclusive: 24.4%
22 | CC1Oc2cc3c(-c4c(O)cc(O)c5c(O)c6c(cc45)OC(C)C(C)C6=O)c(O)cc(O)c3c(O)c2C(=O)C1C (centres undefined) | inconclusive: 69.9%
23 | Cc1cccc(N2CCc3c2nc2ccccc2c3N)c1 | active: 25.6%
24 | O=C1c2cccc3cccc(c23)C(=O)N1/N=C/c1c(O)n(-c2ccccc2)c(=O)[nH]c1=O | inconclusive: 26.5%
25 | CC1(C)CN=C(Nc2nc3ccccc3s2)S1 | active: 26.9%
26 | Nc1c(C(=O)NCC2CCCO2)c2nc3ccccc3nc2n1Cc1ccco1 (centres undefined) | inconclusive: 24.1%
27 | CCOc1ccc(N=C2SCCCN2C)cc1 | inconclusive: 25.9%

Compounds 13–27, quoted:
Row | SMILES | inhibition
13 | COCCOC(=O)c1c(N)n(Cc2ccc(OC)cc2)c2nc3ccccc3nc12 | inconclusive: 24.5%
14 | O=c1[nH]c(=S)n(C2CC2)c(O)c1/C=N/Nc1cccc2ccccc12 | inconclusive: 28.1%
15 | O=C(O)c1cccc2c1NC(C(=O)O)C1CC(Sc3ccccc3[N+](=O)[O-])C(Cl)C21 (centres undefined) | inconclusive: 34.7%
16 | Oc1cccc2nc3ccccc3nc12 | inconclusive: 26.2%
17 | CN1C(=O)C(=Cc2ccccc2OCc2ccccc2Cl)C(=O)N(C)C1=O | inconclusive: 25%
18 | CCCCOCCCn1c(N)c(C(=O)OCCOC)c2nc3ccccc3nc21 | inactive: 19.1%
19 | CC(C)CCn1c(=O)c(C(=O)Nc2ccccc2S(N)(=O)=O)c(O)c2ccccc21 | inconclusive: 11.9%
20 | CCCCN1C(=O)C(C2c3ccccc3C(=O)N2Cc2ccccc2)C(=O)NC1=S (centres undefined) | inconclusive: 27.8%
21 | CCOC(=O)c1c(-c2ccc(OC)cc2)oc2ccc(OC(=O)N(C)C)cc12 | inconclusive: 24.4%
22 | CC1Oc2cc3c(-c4c(O)cc(O)c5c(O)c6c(cc45)OC(C)C(C)C6=O)c(O)cc(O)c3c(O)c2C(=O)C1C (centres undefined) | inconclusive: 69.9%
23 | Cc1cccc(N2CCc3c2nc2ccccc2c3N)c1 | active: 25.6%
24 | O=C1c2cccc3cccc(c23)C(=O)N1/N=C/c1c(O)n(-c2ccccc2)c(=O)[nH]c1=O | inconclusive: 26.5%
25 | CC1(C)CN=C(Nc2nc3ccccc3s2)S1 | active: 26.9%
26 | Nc1c(C(=O)NCC2CCCO2)c2nc3ccccc3nc2n1Cc1ccco1 (centres undefined) | inconclusive: 24.1%
27 | CCOc1ccc(N=C2SCCCN2C)cc1 | inconclusive: 25.9%

Remaining list, next part

Row | SMILES | inhibition
28 | O=C(c1cc2c(s1)-c1ccccc1OC2)N1CCC2(CC1)OCCO2 | inconclusive: 26.4%
29 | CC(C)(C)OC(=O)c1c(N)n(Cc2ccco2)c2nc3ccccc3nc12 | inactive: 8.25%
30 | COCCNC(=O)c1c(NC(=O)c2ccco2)n(Cc2ccccc2)c2nc3ccccc3nc12 | inconclusive: 26.4%
31 | Cn1c(O)c(/C=N/NC(=O)c2ccncc2)c(=O)[nH]c1=S | inconclusive: 27.4%
32 | CCCCn1c(N)c(C(=O)OCC2CCCO2)c2nc3ccccc3nc21 (centres undefined) | inconclusive: 27.8%
33 | O=C1NC(=S)N(Cc2ccco2)C(=O)/C1=C\c1cccs1 | inconclusive: 34.9%
34 | COc1ccc(NC(c2ccccc2F)P(=O)(Oc2ccccc2)Oc2ccccc2)cc1 (centres undefined) | inconclusive: 24.4%
35 | O=C(N/N=C/c1c(O)n(CCc2ccc(F)cc2)c(=O)[nH]c1=O)c1ccncc1 | inconclusive: 28.4%
36 | Cc1cc(C=C2C(=O)NC(=S)NC2=O)c(C)n1C1CCCC1 | inconclusive: 23.4%
37 | CCOC(=O)C(O)(c1cn(C)c2ccccc12)C(F)(F)F (centres undefined) | active: 25.5%
38 | Cc1sc2nc(COC(=O)Cc3ccccc3)[nH]c(=O)c2c1C | inactive: 13.2%
39 | CCC1(OC(=O)CN)C(=O)OCc2c1cc1n(c2=O)Cc2cc3ccccc3nc2-1 (centres undefined) | inconclusive: 25.8%
40 | Cc1cc2c(C(C)C)c(O)c(O)c(C=O)c2c(O)c1-c1c(C)cc2c(C(C)C)c(O)c(O)c(C=O)c2c1O | inconclusive: 40.6% and inconclusive: 54.9%
41 | O=C(C1CCC(=O)N1Cc1ccccc1Cl)N1CCC2(CC1)OCCO2 (centres undefined) | inactive: 4.98%
42 | O=C1NC(=O)N(Cc2ccccc2Cl)C(=O)/C1=C/c1cccs1 | inconclusive: 24.6%
43 | c1ccc(C2=NP(N3CCOCC3)(N3CCOCC3)=NC(N3CCOCC3)=N2)cc1 | inactive: -3.04%
44 | CCCCC(=O)N/N=C/c1c(O)n(Cc2ccco2)c(=O)[nH]c1=O | inconclusive: 27.1%
45 | CCCCCn1c(N)c(C(=O)NCCN2CCOCC2)c2nc3ccccc3nc21 | inconclusive: 27.1%
46 | COCCOC(=O)c1c(N)n(Cc2ccccc2)c2nc3ccccc3nc12 | active: 25%
47 | C=CCNC(=O)c1c(N)n(Cc2ccco2)c2nc3ccccc3nc12 | active: 24.2%
48 | CN(C)[C@@H]1C(=O)C(C(N)=O)=C(O)[C@@]2(O)C(=O)C3=C(O)c4c(O)cccc4[C@@](C)(O)[C@H]3[C@H](O)[C@@H]12 | inconclusive: 28.2%
49 | CCN1C(=O)/C(=C/c2ccc3c(c2)CCN3CCCCl)C(=O)NC1=S | inconclusive: 23.4%
50 | COCCCn1c(N)c(C(=O)OCCOC)c2nc3ccccc3nc21 | active: 27.6%
51 | COc1ccc(CN2C(=O)NC(=O)/C(=C/c3ccc([N+](=O)[O-])o3)C2=O)cc1 | inconclusive: 25.3%
52 | CCCC[N+]12CCC(CC1)C(=C(c1ccccc1)c1ccccc1)C2 | inconclusive: 27.2%
53 | CCc1ccc(-n2c(O)c(/C=N/NC(=O)c3ccncc3)c(=O)[nH]c2=O)cc1 | inconclusive: 24%
54 | O=C1NC(=O)N(c2cccc(Cl)c2)C(=O)/C1=C\c1ccc(Sc2nc3ccccc3[nH]2)o1 | inconclusive: 28.2%
